*1 amine or outer side, *2 acyl side, *3 side chain or, on linkers, in order; H or OH if unused. Where a SMILES comes first, the peptide text is derived from it. Bridges are numbered along the chain shown (N, C = ends). [ ]: non-standard residue; d: D form. X2 = C=C(N[*:2])c1nc(-c2nc(-c3nc(C(=O)OC)cs3)ccc2C(=O)[*:1])cs1; Nle = CCCC[C@H](N)C(=O)O; Dha = C=C(N)C(=O)O
Tested on: LazBCDEF
Experiment: Enzymatic maturation with Laz enzymes, LC/MS analysis
Assay type: biochemical
Parameters: key: +++/++/+/– scale; +++/++/+/– scale; +++/++/+/– scale; +++/++/+/– scale
Settings: semiquantitative LC/MS of the in vitro translated precursor treated with Laz enzymes

Structure (SMILES)	maturation experimental
C=C1NC(=O)[C@H]([C@@H](C)CC)NC(=O)[C@H](C)NC(=O)[C@H](CC(C)C)NC(=O)[C@H](CCCCN)NC(=O)[C@H](CO)NC(=O)[C@H](CCC(N)=O)NC(=O)[C@H](CC(C)C)NC(=O)[C@H](CCCNC(=N)N)NC(=O)[C@H](Cc2ccccc2)NC(=O)[C@H](CC(C)C)NC(=O)[C@H](CCCC)NC(=O)[C@H]([C@@H](C)O)NC(=O)[C@H](Cc2c[nH]c3ccccc23)NC(=O)c2ccc(-c3nc(C(=O)OC)cs3)nc2-c2csc1n2 [TL6] (HELM PEPTIDE1{W.T.[Nle].L.F.R.L.Q.S.K.L.A.I}|CHEM1{[C=C(N[*:2])c1nc(-c2nc(-c3nc(C(=O)OC)cs3)ccc2C(=O)[*:1])cs1]}$PEPTIDE1,CHEM1,1:R1-1:R1|PEPTIDE1,CHEM1,13:R2-1:R2$$$V2.0)	+++
C=C1NC(=O)[C@H](Cc2ccccc2)NC(=O)[C@H](C)NC(=O)[C@H]([C@@H](C)CC)NC(=O)[C@H](CCCCN)NC(=O)[C@H](CC(N)=O)NC(=O)[C@H](CCC(N)=O)NC(=O)[C@H](CC(N)=O)NC(=O)[C@H]([C@@H](C)O)NC(=O)[C@H](Cc2ccccc2)NC(=O)[C@H](CCCNC(=N)N)NC(=O)[C@H]([C@@H](C)CC)NC(=O)[C@H]([C@@H](C)O)NC(=O)[C@H](Cc2c[nH]c3ccccc23)NC(=O)c2ccc(-c3nc(C(=O)OC)cs3)nc2-c2csc1n2 [TL4] (HELM PEPTIDE1{W.T.I.R.F.T.N.Q.N.K.I.A.F}|CHEM1{[C=C(N[*:2])c1nc(-c2nc(-c3nc(C(=O)OC)cs3)ccc2C(=O)[*:1])cs1]}$PEPTIDE1,CHEM1,1:R1-1:R1|PEPTIDE1,CHEM1,13:R2-1:R2$$$V2.0; bridges inferred)	+++
C=C1NC(=O)[C@H](Cc2c[nH]cn2)NC(=O)[C@@H]2CCCN2C(=O)[C@H](CCCNC(=N)N)NC(=O)[C@H](CCCNC(=N)N)NC(=O)[C@H](CCCNC(=N)N)NC(=O)[C@H](C)NC(=O)[C@H](Cc2c[nH]c3ccccc23)NC(=O)[C@H](Cc2ccc(O)cc2)NC(=O)[C@H](CC(C)C)NC(=O)[C@H](CO)NC(=O)[C@H](CCSC)NC(=O)[C@H](C)NC(=O)[C@H](Cc2c[nH]c3ccccc23)NC(=O)c2ccc(-c3nc(C(=O)OC)cs3)nc2-c2csc1n2 [IR11] (HELM PEPTIDE1{W.A.M.S.L.Y.W.A.R.R.R.P.H}|CHEM1{[C=C(N[*:2])c1nc(-c2nc(-c3nc(C(=O)OC)cs3)ccc2C(=O)[*:1])cs1]}$PEPTIDE1,CHEM1,1:R1-1:R1|PEPTIDE1,CHEM1,13:R2-1:R2$$$V2.0)	+++
C=C1NC(=O)[C@H]([C@@H](C)CC)NC(=O)[C@H](CO)NC(=O)[C@H](CC(=O)O)NC(=O)[C@H](CCCNC(=N)N)NC(=O)[C@H](C)NC(=O)[C@H](CCCC)NC(=O)C(=C)NC(=O)CNC(=O)[C@@H]2CCCN2C(=O)[C@H](Cc2c[nH]c3ccccc23)NC(=O)c2ccc(-c3nc(C(=O)OC)cs3)nc2-c2csc(n2)C(=C)NC1=O [TL18] (WPG[Dha][Nle]ARDSI[Dha]; linker N-C via X2)	+++
C=C1NC(=O)[C@H](CCCCN)NC(=O)[C@H](Cc2ccc(O)cc2)NC(=O)[C@H]([C@@H](C)CC)NC(=O)[C@H](CCCNC(=N)N)NC(=O)[C@H](CCCNC(=N)N)NC(=O)[C@H](CCCCN)NC(=O)[C@H](Cc2ccccc2)NC(=O)[C@H](CC(C)C)NC(=O)[C@H](CCSC)NC(=O)[C@H](CO)NC(=O)[C@H](Cc2c[nH]c3ccccc23)NC(=O)c2ccc(-c3nc(C(=O)OC)cs3)nc2-c2csc1n2 [IR5] (HELM PEPTIDE1{W.S.M.L.F.K.R.R.I.Y.K}|CHEM1{[C=C(N[*:2])c1nc(-c2nc(-c3nc(C(=O)OC)cs3)ccc2C(=O)[*:1])cs1]}$PEPTIDE1,CHEM1,1:R1-1:R1|PEPTIDE1,CHEM1,11:R2-1:R2$$$V2.0; bridges inferred)	+++
C=C1NC(=O)[C@H](Cc2ccc(O)cc2)NC(=O)[C@H](C)NC(=O)[C@H](C(C)C)NC(=O)[C@H](CCCCN)NC(=O)CNC(=O)[C@H](CC(C)C)NC(=O)[C@H](CCCNC(=N)N)NC(=O)[C@@H]2CCCN2C(=O)[C@H](Cc2ccccc2)NC(=O)[C@H](CCCC)NC(=O)[C@H](CCCC)NC(=O)[C@H]([C@@H](C)O)NC(=O)[C@H](Cc2c[nH]c3ccccc23)NC(=O)c2ccc(-c3nc(C(=O)OC)cs3)nc2-c2csc1n2 [TL9] (HELM PEPTIDE1{W.T.[Nle].[Nle].F.P.R.L.G.K.V.A.Y}|CHEM1{[C=C(N[*:2])c1nc(-c2nc(-c3nc(C(=O)OC)cs3)ccc2C(=O)[*:1])cs1]}$PEPTIDE1,CHEM1,1:R1-1:R1|PEPTIDE1,CHEM1,13:R2-1:R2$$$V2.0)	+++
C=C1NC(=O)CNC(=O)[C@H]([C@@H](C)CC)NC(=O)[C@H]([C@@H](C)CC)NC(=O)CNC(=O)[C@H](CCC(N)=O)NC(=O)CNC(=O)[C@H](CCCC(N)=O)NC(=O)[C@H](Cc2c[nH]c3ccccc23)NC(=O)[C@H](C(C)C)NC(=O)[C@H]([C@@H](C)CC)NC(=O)[C@H](CC(N)=O)NC(=O)[C@H](CO)NC(=O)[C@H](Cc2c[nH]c3ccccc23)NC(=O)c2ccc(-c3nc(C(=O)OC)cs3)nc2-c2csc1n2 [TL10] (HELM PEPTIDE1{W.S.N.I.V.W.[O=C([C@H](CCCC(=O)[*:3])N[*:1])[*:2]].G.Q.G.I.I.G}|PEPTIDE2{[am]}|CHEM1{[C=C(N[*:2])c1nc(-c2nc(-c3nc(C(=O)OC)cs3)ccc2C(=O)[*:1])cs1]}$PEPTIDE1,PEPTIDE2,7:R3-1:R1|PEPTIDE1,CHEM1,1:R1-1:R1|PEPTIDE1,CHEM1,13:R2-1:R2$$$V2.0; bridges inferred)	+++
C=C1NC(=O)[C@H](CCCCN)NC(=O)[C@H]([C@@H](C)CC)NC(=O)[C@H](CCCC)NC(=O)[C@H](C(C)C)NC(=O)[C@H](CCCNC(=N)N)NC(=O)CNC(=O)[C@H]([C@@H](C)CC)NC(=O)[C@H](Cc2c[nH]c3ccccc23)NC(=O)c2ccc(-c3nc(C(=O)OC)cs3)nc2-c2csc(n2)C(=C)NC(=O)c2coc1n2 [TL19] (HELM PEPTIDE1{W.I.G.R.V.[Nle].I.K.[C=C(N[*:1])c1nc(C(=O)[*:2])co1]}|CHEM1{[C=C(N[*:2])c1nc(-c2nc(-c3nc(C(=O)OC)cs3)ccc2C(=O)[*:1])cs1]}$PEPTIDE1,CHEM1,1:R1-1:R1|PEPTIDE1,CHEM1,9:R2-1:R2$$$V2.0; bridges inferred)	+++
C=C1NC(=O)[C@H](Cc2c[nH]c3ccccc23)NC(=O)CNC(=O)[C@H](C(C)C)NC(=O)[C@H](CC(N)=O)NC(=O)CNC(=O)CNC(=O)[C@H](Cc2ccc(O)cc2)NC(=O)[C@@H]2CCCN2C(=O)[C@H](CC(N)=O)NC(=O)[C@H]([C@@H](C)O)NC(=O)[C@H](Cc2c[nH]c3ccccc23)NC(=O)c2ccc(-c3nc(C(=O)OC)cs3)nc2-c2csc1n2 [TL1] (HELM PEPTIDE1{W.T.N.P.Y.G.G.N.V.G.W}|CHEM1{[C=C(N[*:2])c1nc(-c2nc(-c3nc(C(=O)OC)cs3)ccc2C(=O)[*:1])cs1]}$PEPTIDE1,CHEM1,1:R1-1:R1|PEPTIDE1,CHEM1,11:R2-1:R2$$$V2.0; bridges inferred)	+++
C=C1NC(=O)[C@H](Cc2c[nH]cn2)NC(=O)[C@H]([C@@H](C)CC)NC(=O)[C@H](C(C)C)NC(=O)[C@H](C(C)C)NC(=O)[C@H](CC(N)=O)NC(=O)[C@H](C(C)C)NC(=O)[C@H](CCCNC(=N)N)NC(=O)[C@H](CO)NC(=O)[C@H](CC(C)C)NC(=O)[C@H](CCC(=O)O)NC(=O)[C@H](CC(C)C)NC(=O)[C@H](CO)NC(=O)[C@H](Cc2c[nH]c3ccccc23)NC(=O)c2ccc(-c3nc(C(=O)OC)cs3)nc2-c2csc1n2 [TL20] (HELM PEPTIDE1{W.S.L.E.L.S.R.V.N.V.V.I.H}|CHEM1{[C=C(N[*:2])c1nc(-c2nc(-c3nc(C(=O)OC)cs3)ccc2C(=O)[*:1])cs1]}$PEPTIDE1,CHEM1,1:R1-1:R1|PEPTIDE1,CHEM1,13:R2-1:R2$$$V2.0; bridges inferred)	+++
